From patent US20250381242A1 (INVAIO SCIENCES, INC., priority 2024, published 2025) come the findings set out here.

A value given as a limit tells only on which side of the number the result lay.

For one test, the system named is E. coli. Briefly: Bacterial growth inhibition by OD600 absorbance, E. coli. It counts as cell-based, E. coli (DH5-alpha). The note with it: peptide 10 μM, 24 hours at 37° C., OD 600 nm. On the procedure: (§1) Antimicrobial activity of antimicrobial peptides was tested against the agricultural microbial pests A. tumefaciens, E. amylovora, E. coli, and X. citri, using OD absorbance measurement to detect bacterial growth.
(§2) Antimicrobial peptides were synthesized using solid phase peptide synthesis method and resuspended in 10% DMSO to a 1 mM stock concentration. The stock solution was aliquoted in cryovials and stored at −80° C.
(§3) An aliquot of 198 μl of the bacterial culture was added to each well in a 96-well plate and 2 μl of a 1 mM peptide stock solution was added to each well, for a final treatment concentration of 10 μM of a given peptide. Media only wells were included to control for contamination. The positive controls were 50 μg/ml oxytetracycline hydrochloride and 500 μg/ml streptomycin sulfate. A 0.1% DMSO treatment was included as a negative control.
(§4) An initial absorbance reading of the bacterial suspensions was taken at 600 nm. Then, the bacteria were grown in an incubator at 30° C. (A. tumefaciens, E. amylovora, X. citri) or 37° C. (E. coli) for 24 hours, after which the final absorbance reading was measured. Using the initial and final absorbance reading compared to negative and positive controls, the percent inhibition of the bacterial strain by given peptide treatment was determined.

The test system of a further test is E. amylovora. The following applies: 24 h, 10 μM.
A further test has as its system A. tumefaciens. The following applies: 24 h, 10 μM.
Another test concerns X. citri. Briefly: Bacterial growth inhibition by OD600 absorbance, X. citri. The class given is cell-based, X. citri subsp. citri (ATCC 49118). The note with it: peptide 10 μM, 24 hours at 30° C., OD 600 nm. On the procedure: as §1, §2, §3, §4
The next test has as its system L. crescens. The following applies: 10 μM.

As for `CC[C@H](C)[C@H](NC(=O)[C@H](Cc1ccccc1)NC(=O)[C@H](CC(C)C)NC(=O)[C@H](CCCNC(=N)N)NC(=O)[C@@H](NC(=O)[C@H](CCCCN)NC(=O)[C@@H](NC(=O)[C@H](CC(C)C)NC(=O)[C@@H](N)C(C)C)[C@@H](C)CC)[C@@H](C)O)C(=O)N[C@@H](CCCCN)C(=O)N[C@@H](CCCNC(=N)N)C(=O)N[C@@H](CCCCN)C(=O)O` [compound 127], in the test with E. coli, the “growth inhibition, E. coli” value is on record as under 90%. The “growth inhibition, E. amylovora” value in the test on E. amylovora is under 90%. The “growth inhibition, A. tumefaciens” value with A. tumefaciens was under 90%. For the same compound, the “growth inhibition, X. citri” value with X. citri was under 90%.

Consider `CC[C@H](C)[C@H](NC(=O)[C@H](CC(C)C)NC(=O)[C@@H]1CCCN1C(=O)[C@H](CCCCN)NC(=O)[C@H](C)NC(=O)[C@@H](NC(=O)[C@@H](NC(=O)[C@@H](NC(=O)[C@@H](NC(=O)[C@H](CCCCN)NC(=O)[C@H](CCCCN)NC(=O)[C@H](C)NC(=O)[C@H](C)NC(=O)[C@H](CO)NC(=O)[C@@H](NC(=O)[C@H](CC(C)C)NC(=O)[C@H](CCCCN)NC(=O)[C@H](CCCCN)NC(=O)[C@@H](NC(=O)[C@H](Cc1ccccc1)NC(=O)[C@H](CO)NC(=O)[C@H](CCCCN)NC(=O)[C@H](Cc1c[nH]c2ccccc12)NC(=O)[C@@H](N)CCCCN)[C@@H](C)CC)[C@@H](C)O)C(C)C)C(C)C)[C@@H](C)O)[C@@H](C)O)C(=O)N[C@@H](CO)C(=O)N[C@@H](CO)C(=O)O` [compound 27], for which, in the test with E. coli, the “growth inhibition, E. coli” value came to 98.53%. The “growth inhibition, E. amylovora” value in the test on E. amylovora is on record as 100.00%. For the same compound, the “growth inhibition, A. tumefaciens” value with A. tumefaciens is given as 100.00%. The “growth inhibition, L. crescens” value with L. crescens was under 90%. Besides, the “growth inhibition, X. citri” value in the test on X. citri stood at 100.00%.
